The campaign covered roughly 580,000 compounds. About 6,100 (1.1%) were called active. The inconclusive results got no clear call from the source; some entries with a clear call stand among them for comparison. Calls follow the shape of the dose curve; as a rule, active = well fitted inhibition curve with a large enough effect; inconclusive = small, poorly fitted or top-dose-only effect, or another doubt; inactive = no such curve, though single readings can be large or run the other way. Where the call is inconclusive, the potency comes from a doubtful curve fit.
Target: Polyunsaturated fatty acid lipoxygenase ALOX12 (Homo sapiens) (UniProt P18054)
Experiment: Primary qHTS assay for inhibitors of human arachidonate 12S-lipoxygenase (ALOX12): Round 2
Conditions: purified 12hLO, xylenol orange hydroperoxide absorbance; activity change, negative = inhibition: at 108 µM (top of the series) unless noted
Outline: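 Purified human 12hLO at 150 nM in 25 mM Hepes, 0.01% Triton X-100, pH 7.0, preincubated 15 min at room temperature with compound. Reaction started with 40 uM arachidonic acid, 30 min at room temperature. Hydroperoxide measured by Fe-xylenol orange, 573/405 nm absorbance ratio.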
% is scaled to controls: 0 for no effect and ±100 for the full control effect; potency is read from the fitted curve at half-maximal effect.

Sequences of proteins named here, by UniProt entry; tags and fusion partners are left off. A change or cut given only in a name is not applied to a line headed by its entry.
UniProt P18054: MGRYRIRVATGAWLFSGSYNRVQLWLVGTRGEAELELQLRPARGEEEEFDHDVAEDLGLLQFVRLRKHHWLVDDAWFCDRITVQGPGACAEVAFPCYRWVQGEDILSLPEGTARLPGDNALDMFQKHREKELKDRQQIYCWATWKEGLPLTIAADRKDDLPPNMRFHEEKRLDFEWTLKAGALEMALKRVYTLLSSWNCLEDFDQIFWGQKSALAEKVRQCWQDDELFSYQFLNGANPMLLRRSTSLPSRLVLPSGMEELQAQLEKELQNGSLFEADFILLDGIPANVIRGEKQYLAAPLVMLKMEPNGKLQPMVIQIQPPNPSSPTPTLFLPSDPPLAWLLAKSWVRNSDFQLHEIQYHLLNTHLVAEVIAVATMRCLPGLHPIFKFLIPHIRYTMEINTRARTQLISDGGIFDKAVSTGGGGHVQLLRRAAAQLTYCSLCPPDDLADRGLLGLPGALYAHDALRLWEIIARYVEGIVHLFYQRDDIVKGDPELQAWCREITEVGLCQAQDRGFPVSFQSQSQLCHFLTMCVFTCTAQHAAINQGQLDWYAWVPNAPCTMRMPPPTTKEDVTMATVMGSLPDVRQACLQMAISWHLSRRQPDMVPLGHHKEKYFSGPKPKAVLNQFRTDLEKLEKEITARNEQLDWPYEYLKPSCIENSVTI

Row | Structure (SMILES) | Potency | activity change, negative = inhibition
1 | Cc1cccc(C)c1NC(=O)c1ccc2ncsc2c1 | inconclusive: 31.6 µM [inhibitor, partial curve, poor fit] | –
2 | Cc1[nH]c2ccc(Cl)cc2c1[N+](=O)[O-] | inconclusive: 112 µM [inhibitor, single point] | –
3 | Cc1cccc(NC(=O)COc2ccc3c(C)cc(=O)oc3c2)c1 | – | inactive: 8.37%
4 | COc1cc(C=NNc2ccc(S(=O)(=O)Nc3ccccc3C(=O)O)cc2[N+](=O)[O-])ccc1O | inconclusive: 39.8 µM [inhibitor, partial curve, poor fit] | –
5 | CCC(CC)C(=O)Nc1cccc(-c2nc3cc(C)ccc3o2)c1 | – | inactive: 19.2%
6 | Oc1ccccc1-c1cc(-c2ccccc2)n[nH]1 | inconclusive: 44.7 µM [inhibitor, partial curve, poor fit] | –
7 | CN(Cc1ccco1)C(=O)c1cn[nH]c1-c1ccc(Cl)cc1 | – | inactive: -14.7%
8 | CN1CCC2(CCC1=O)CN(C(=O)Cn1ncnn1)CCN2C (stereo unspecified) | inconclusive: 11.2 µM [inhibitor, partial curve, poor fit] | –
9 | Fc1ccc(Nc2ncncc2-c2ccccc2C(F)(F)F)cc1 | inconclusive: 70.8 µM [inhibitor, partial curve, poor fit] | –
10 | N#Cc1c(/N=C/c2ccco2)oc(-c2ccccc2)c1-c1ccccc1 | inconclusive: 44.7 µM [inhibitor, partial curve, poor fit] | –
11 | CCc1ccc(C(=O)N2CCC(Oc3ccc(C(N)=O)cn3)CC2)cc1 | – | inactive: 6.44%
12 | C=C1CCN([C@@H](CC(C)C)C(=O)NCc2ccc(Cl)c(Cl)c2)S(=O)(=O)c2ccccc21 | – | inactive: -9.81%
13 | Cc1nc([C@@H]2CN(S(=O)(=O)c3ccc4c(c3)CCC4)C[C@H]2C(N)=O)n[nH]1 | inconclusive: 70.8 µM [inhibitor, partial curve] | –
14 | COC(=O)COc1cc(OCC(=O)OC)c2c(C)c(Cl)c(=O)oc2c1 | – | inactive: -0.34%
15 | Cc1ccc(N2CC(C(=O)NCCC3=CCCCC3)CC2=O)cc1 (stereo unspecified) | inconclusive: 44.7 µM [inhibitor, partial curve, poor fit] | –
16 | COCCNC(=O)c1ccc2c3n(nc2c1)-c1ccc(C)cc1CO3 | inconclusive: 112 µM [inhibitor, single point] | –
17 | CC(C)(CNC(=S)NCCc1ccccc1)CNC(=S)NCCc1ccccc1 | active: 20 µM | –
18 | Cc1noc(-c2cccc(OC3CN(C(=O)Cc4ccccc4)C3)c2)n1 | – | inactive: 36.4%
19 | Cc1ccc(S(=O)(=O)N2CCCCC2)cc1NC(=O)c1oc2c(F)cccc2c1C | inconclusive: 35.5 µM [inhibitor, partial curve, poor fit] | –
20 | Nc1n[nH]c(=S)n1/N=C1/C(=O)Nc2ccccc21 | inconclusive: 31.6 µM [inhibitor, partial curve, poor fit] | –
21 | Cn1cc(C(=O)N2CCN(S(=O)(=O)c3cccc(Br)c3)CC2)c2ccccc21 | inconclusive: 35.5 µM [inhibitor, partial curve, poor fit] | –
22 | CSCCC(NC(N)=O)C(=O)NCc1ccc(Cl)cc1 (stereo unspecified) | inconclusive: 44.7 µM [inhibitor, partial curve, poor fit] | –

Row | Structure (SMILES) | Potency | activity change, negative = inhibition
23 | CC(=O)c1ccc(NC(=O)CN2C(=O)NC3(CCc4ccccc43)C2=O)cc1 (stereo unspecified) | inconclusive: 0.355 µM [inhibitor, full curve, poor fit] | –
24 | O=C(Cc1csc(-c2ccsc2)n1)Nc1ccnn1Cc1ccccc1Br | inconclusive: 79.4 µM [inhibitor, partial curve, poor fit] | –
25 | COc1ccc(C)cc1Nc1nc(N)c2ccccc2n1 | inconclusive: 100 µM [inhibitor, single point] | –
26 | COc1cc(C2CC(=O)Nc3c2c(C)nn3-c2nncc(-c3ccc(C)cc3)n2)cc(OC)c1O (stereo unspecified) | – | inactive: -11.6%
27 | COC(=O)C1CCN(Cc2ccc3c(c2)CN(C(=O)c2cc4cc(F)ccc4[nH]2)CCO3)CC1 | inconclusive: 112 µM [inhibitor, single point] | –
28 | Cc1nn(-c2ccc(C(C)(C)C)cc2)c(C)c1[C@@H]1C=C[C@@H](NCc2ccco2)C1 | – | inactive: -12.7% [at 176 µM]
29 | Cc1cc(C)n(CC(O)Cn2c3ccccc3c3ccccc32)n1 (stereo unspecified) | – | inactive: -13.3%
30 | CC(C)NC(=O)N[C@H]1CCN2C(=O)c3cc(/C=C/c4ccccc4)ccc3NC(=O)[C@H]12 | inconclusive: 100 µM [inhibitor, single point] | –
31 | COCc1nc(-c2ccc(OC3CN(Cc4ccsc4)C3)cc2)no1 | – | inactive: 6.49%
32 | COC[C@@H]1CN(C(=O)c2n[nH]c3ccccc23)C[C@H]1c1nc(C)no1 | – | inactive: -2.12%
33 | Cc1c(C=NNc2ccccc2)[nH]c(=O)[nH]c1=O | inconclusive: 56.2 µM [inhibitor, partial curve, poor fit] | –
34 | O=C(N/N=C/c1ccc(Br)s1)c1ccncc1 | – | inactive: -2.43%
35 | Cc1ccc2[nH]c(=O)c(CN(Cc3ccco3)C(=O)c3ccncc3)cc2c1 | inconclusive: 35.5 µM [inhibitor, partial curve, poor fit] | –
36 | COc1cc(/C=C/c2ccc3cccc([N+](=O)[O-])c3n2)ccc1O | inconclusive: 7.08 µM [inhibitor, partial curve, poor fit] | –
37 | COc1cccc(C2c3c(oc4ccc(Cl)cc4c3=O)C(=O)N2c2cc(C)on2)c1OC (stereo unspecified) | inconclusive: 8.91 µM [inhibitor, full curve, poor fit] | –
38 | Cc1cccc(NC(=O)CNC(=O)COc2cccnc2[N+](=O)[O-])c1C | – | inactive: 5.47%
39 | O=C(c1cc(COc2ccccc2F)[nH]n1)N1CCCC(CN2CCOCC2)C1 (stereo unspecified) | – | inactive: 39.6%
40 | NC(=O)CCCn1c(C(=O)c2ccc(Cl)cc2)c2ccc([N+](=O)[O-])cc2[n+]1[O-] | inconclusive: 56.2 µM [inhibitor, partial curve, poor fit] | –
41 | Cc1ccc(N2NC(=O)/C(=C/C=C/c3ccco3)C2=O)cc1C | active: 39.8 µM | –
42 | CCOC(=O)Cc1csc(NC(=O)c2ccc([N+](=O)[O-])cc2[N+](=O)[O-])n1 | inconclusive: 12.6 µM [inhibitor, full curve, poor fit] | –
43 | Cc1cc(C(=O)COC(=O)c2cc(Cl)ccc2N)c(C)n1Cc1ccco1 | inconclusive: 126 µM [inhibitor, partial curve, poor fit] | –
44 | Cc1cccc(NC(=S)N(Cc2ccco2)C(C)c2cccs2)c1 (stereo unspecified) | inconclusive: 10 µM [inhibitor, full curve, poor fit] | –

Row | Structure (SMILES) | Potency | activity change, negative = inhibition
45 | CC(NC(=O)Nc1ccc(Cl)cc1)c1ccc2c(c1)OCO2 (stereo unspecified) | inconclusive: 50.1 µM [inhibitor, partial curve, poor fit] | –
46 | CC(=O)N(c1nc(CCl)cs1)c1cccc(C)c1C | inconclusive: 112 µM [inhibitor, single point] | –
47 | COC(=O)c1sc(N2C(=O)C(=O)/C(=C(/O)c3cccc(OC)c3)C2c2ccccc2F)nc1C (stereo unspecified) | inconclusive: 0.708 µM [inhibitor, full curve, poor fit] | –
48 | O=C1CC(=O)N2N=C(c3ccc([N+](=O)[O-])cc3)SC2=N1 | inconclusive: 79.4 µM [inhibitor, partial curve, poor fit] | –
49 | CCNC(=S)NCCSc1ccc(Cl)cc1 | inconclusive: 2.51 µM [inhibitor, full curve, poor fit] | –
50 | CCN(CC)c1nc2c3c(nc4c(c3c1C#N)CC(=O)N4c1ccc(Cl)cc1)NC(C)=N2 | inconclusive: 39.8 µM [inhibitor, partial curve, poor fit] | –
51 | Nc1nc(SCC(=O)NCCCN2CCOCC2)nc2sc3c(c12)CCC3 | – | inactive: 7.37% [at 57.4 µM]
52 | CCN(Cc1cc2cc(OC)ccc2[nH]c1=O)C(=O)Cc1ccc(OC)cc1 | inconclusive: 44.7 µM [inhibitor, partial curve, poor fit] | –
53 | CNC(=O)c1c(C)nc2n1CCC(Nc1ccccc1C)C2 (stereo unspecified) | – | inactive: 6.32% [at 176 µM]
54 | Cc1ncc(C)c(N2C[C@H](NC(=O)CCC(F)(F)F)[C@@H](C(C)C)C2)n1 | inconclusive: 8.91 µM [inhibitor, full curve, poor fit] | –
55 | CC(Oc1ccccc1Cl)C(=O)NC(c1ccccc1)c1ccccc1 (stereo unspecified) | inconclusive: 25.1 µM [inhibitor, single point] | –
56 | COc1cccc(Cn2nnc(C(=O)Nc3cc(C)ccc3C)c2N)c1 | – | inactive: -14.9%
57 | CC(C)CS(=O)(=O)c1oc(-c2ccc(F)cc2)nc1S(=O)(=O)c1ccccc1 | – | inactive: 1.85%
58 | O=C(c1ccc(F)cc1)c1ccc(N2CCCC2)cc1 | active: 31.6 µM | –
59 | O=C(/C=C/c1c(F)cccc1Cl)Nc1nn[nH]n1 | inconclusive: 0.562 µM [inhibitor, full curve, poor fit] | –
60 | Cn1nc(C(F)(F)F)c(Cl)c1C(=O)N[C@@H]1CCNC[C@H]1O | inconclusive: 12.6 µM [inhibitor, full curve, poor fit] | –
61 | CCOc1ccccc1CNC(=O)Cn1c(-c2ccccc2)cc(C(C)=O)c1C | – | inconclusive: -37.5% [inhibitor]
62 | O=C(O)CC(C(=O)O)c1ccco1 (stereo unspecified) | inconclusive: 22.4 µM [inhibitor, full curve, poor fit] | –
63 | CCS(=O)(=O)c1ccc2oc(=O)c(/C=C(\O)c3ccc(Cl)cc3)nc2c1 | – | inconclusive: -35.7% [inhibitor]
64 | COc1ccc(C(=O)/C=C(\C)NCc2ccc3c(c2)OCO3)cc1 | inconclusive: 31.6 µM [inhibitor, partial curve, poor fit] | –
65 | COCCCN1C(=O)C(O)=C(C(=O)c2ccco2)C1c1ccc(Br)cc1 (stereo unspecified) | inconclusive: 5.01 µM [inhibitor, full curve, poor fit] | –
66 | CCCC#Cc1ccc2c(c1)O[C@@H](CN(C)Cc1ccc3c(c1)OCO3)[C@H](C)CN([C@@H](C)CO)S2(=O)=O | inconclusive: 35.5 µM [inhibitor, partial curve] | –

Record cards, as listed above.
`Cc1cccc(NC(=O)COc2ccc3c(C)cc(=O)oc3c2)c1` in the list: activity change, negative = inhibition: inactive: 8.37%
`CC(=O)N(c1nc(CCl)cs1)c1cccc(C)c1C` in the list: Potency: inconclusive: 112 µM [inhibitor, single point]
`COC[C@@H]1CN(C(=O)c2n[nH]c3ccccc23)C[C@H]1c1nc(C)no1` in the list: activity change, negative = inhibition: inactive: -2.12%
`CCS(=O)(=O)c1ccc2oc(=O)c(/C=C(\O)c3ccc(Cl)cc3)nc2c1` in the list: activity change, negative = inhibition: inconclusive: -35.7% [inhibitor]
